Measurements: US10221459B2, “Compositions and methods of treating cancer harboring PIKC3A mutations” (Case Western Reserve University, priority 2014, dated 2019)
At least one structure is not confirmed: it was looked up by name or label, or the drawing left a doubt.

Test system: ATF4 protein levels in the HCT116 PIK3CA mutant clone
Assay: ATF4 protein levels after inhibitor exposure (immunoblot)
Format: cell-based
Details: Western blot (FIG. 6C)
Protocol: Ubiquitination of endogenous ATF4 (A). Ubiquitination of ectopically expressed Flag-tagged ATF4 and HA-tagged ubiquitin (B).
Cells were lysed in RIPA buffer [10 mM Tris (pH 7.4), 150 mM NaCl, 5 mM EDTA (pH 8.0), 0.1% SDS, 1% Triton-X100, 1 mM DTT, 1 mM PMSF, complete Protease Inhibitor Cocktail tablet (Roche); supplemented with phosphatase inhibitors (1 mM Na3VO4, 50 mM NaF, 1 mM β-glycerophosphate, 20 mM sodium pyrophosphate)]. Lysates were then cleared by centrifugation at 14,000 rpm for 10 min and protein concentration in supernatants was determined by the BCA protein assay kit (Pierce). Equal amounts of total protein were used for immunoblotting. For immunoprecipitation (IP), cells were lysed as mentioned above. Cleaned cell lysate incubated with antibody for one hour, and then protein A and/or protein G for one hour. Protein A/G beads were washed with lysis buffer three times, and then boiled with SDS-loading buffer followed with immunoblotting.

O=c1cc(N2CCOCC2)oc2c(-c3ccccc3)cccc12 [LY294002]
ATF4 protein levels: reduced ATF4 protein levels
